Experimental data published in PMC4452637, “Identification of positron emission tomography (PET) tracer candidates by prediction of the target-bound fraction in the brain” (EJNMMI Research, 2014).

What was measured:
[1] = test system: NET; conditions: Yes/No: utility in vivo for reliable quantification of specific target binding; 79 (Additional file 1); cited from earlier work
[2] = test system: D2; assay: PET imaging of specific target binding (BPND, tracer functionality); type: in vivo
[3] = test system: Amyloid; conditions: Yes/No: utility in vivo for reliable quantification of specific target binding; ref Additional file 1: Table S1; cited from earlier work
[4] = test system: Amyloid; assay: PET imaging of specific target binding (BPND, tracer functionality); type: in vivo; conditions: derived from BPND, Eq. 4; cortex
[5] = test system: SERT; assay: as above; type: in vivo; conditions: derived from BPND, Eq. 4; caudate
[6] = test system: SERT; conditions: Yes/No: utility in vivo for reliable quantification of specific target binding; No: data on file or ref 66, 80 (Additional file 1); cited from earlier work
[7] = test system: GABA; conditions: Yes/No: utility in vivo for reliable quantification of specific target binding; No: data on file; ref Additional file 1: Table S1; cited from earlier work
[8] = test system: 5HT2a; conditions: Yes/No: utility in vivo for reliable quantification of specific target binding; ref Additional file 1: Table S1; cited from earlier work
[9] = test system: 5HT2a; assay: PET imaging of specific target binding (BPND, tracer functionality); type: in vivo; conditions: derived from BPND, Eq. 4; temporal cortex
[10] = test system: DAT; assay: as above; type: in vivo; conditions: derived from BPND, Eq. 4; striatum
[11] = test system: TSPO; conditions: Yes/No: utility in vivo for reliable quantification of specific target binding; ref Additional file 1: Table S1; cited from earlier work
[12] = test system: TSPO; assay: PET imaging of specific target binding (BPND, tracer functionality); type: in vivo
[13] = test system: 5HT1a; assay: as above; type: in vivo; conditions: derived from BPND, Eq. 4; hippocampus
[14] = derived from BPND, Eq. 4, caudate/striatum
[15] = derived from BPND, Eq. 4, thalamus

COc1ccccc1OC(CCN[11CH3])c1ccccc1 (racemic) [[^11C]Nisoxetine]
Functioning [1]: No and No[79]

CCN1CCC[C@H]1CNC(=O)c1c(O)c(Cl)cc(Cl)c1O[11CH3] (racemic) [[^11C]Raclopride]
f tb (PET data) [2, 14]: 0.72

[11CH3]Nc1ccc(-c2nc3ccc(O)cc3s2)cn1 [[^11C]AZD2184]
Functioning [3]: Yes
f tb (PET data) [4]: 0.52

CN([11CH3])Cc1ccccc1Sc1ccc(C#N)cc1N [[^11C]DASB]
f tb (PET data) [5]: 0.62
Functioning [6]: Yes

[11CH3]NCCCN1c2ccccc2CCc2ccccc21 [[^11C]Desipramine]
Functioning [1]: No and No[71]

[11CH3]N1C(=O)CN=C(c2ccccc2)c2cc(Cl)ccc21 [[^11C]Diazepam]
Functioning [7]: No and No^a

CCN1CCC[C@H]1CNC(=O)c1cc(Br)cc(OC)c1O[11CH3] [[^11C]FLB457]
f tb (PET data) [2, 15]: 0.72

CCOC(=O)c1ncn2c1CN(C)C(=O)c1cc(F)ccc1-2 [[^11C]Flumazenil]
Functioning [7]: Yes

Cc1ccc(Sc2ccccc2CN(C)[11CH3])c(N)c1 [[^11C]MADAM]
f tb (PET data) [5]: 0.58
Functioning [6]: Yes

COc1c(O[11CH3])cccc1[C@H](O)C1CCN(CCc2ccc(F)cc2)CC1 [[^11C]MDL100907]
Functioning [8]: Yes
f tb (PET data) [9]: 0.57

[11CH3]Sc1ccc([C@H]2CN3CCC[C@H]3c3ccccc32)cc1 [[^11C]McN5652]
f tb (PET data) [5]: 0.33
Functioning [6]: Yes

[11CH3]Oc1ccccc1O[C@@H](c1ccccc1)[C@H]1CNCCO1 [[^11C]MeNER]
Functioning [1]: No and No[75]

Cc1ccc(C2CC3CCC(C2C(=O)O[11CH3])N3CC=CI)cc1 (centres unmarked) [[^11C]PE2I]
f tb (PET data) [10]: 0.89

[11CH3]Nc1ccc(-c2nc3ccc(O)cc3s2)cc1 [[^11C]PIB]
Functioning [3]: Yes
f tb (PET data) [4]: 0.46

CCC(C)N(C)C(=O)c1cc2ccccc2c(-c2ccccc2Cl)n1 (centres unmarked) [[^11C]PK11195]
Functioning [11]: Yes
f tb (PET data) ([12]; in vivo): 0.15

CCN1CCC[C@H]1CNC(=O)c1c(OC)ccc(Br)c1OC [[^11C]Remoxipride]
f tb (PET data) ([2]; non-functioning tracer: arbitrary low value assigned, not derived from PET data): 0.09

COc1ccccc1N1CCN(CCN(c2ccccn2)[11C](=O)C2CCCCC2)CC1 [[^11C]WAY100635]
f tb (PET data) [13]: 0.88

CNc1ccc(-c2cc3cc(O)ccc3o2)c([18F])n1 [[^18 F]AZD4694]
Functioning [3]: Yes
f tb (PET data) [4]: 0.55

O=C(c1ccc([18F])cc1)C1CCN(CCn2c(=S)[nH]c3ccccc3c2=O)CC1 [[^18 F]Altanserin]
Functioning [8]: Yes
f tb (PET data) [9]: 0.51

Cc1ccc([C@H]2C[C@@H]3CC[C@H]([C@H]2C(=O)OCC[18F])N3C/C=C/I)cc1 [[^18 F]FE-PE2I]
f tb (PET data) [10]: 0.80

CC(=O)N(Cc1ccccc1OCC[18F])c1cnccc1Oc1ccccc1 [[^18 F]FEPPA]
Functioning [11]: Yes
f tb (PET data) ([12]; derived from BPND, Eq. 4, basal ganglia): 0.81

COC(=O)[C@H]1[C@@H](c2ccc(I)cc2)C[C@@H]2CC[C@H]1N2CCC[18F] [[^18 F]FP-CIT]
f tb (PET data) [10]: 0.50

C=CCN1CCC[C@H]1CNC(=O)c1cc(CCC[18F])cc(OC)c1OC [[^18 F]Fallypride]
f tb (PET data) [2, 14]: 0.96
f tb (PET data) [2, 15]: 0.68

COc1ccccc1N1CCN(CCN(C(=O)c2ccc([18F])cc2)c2ccccn2)CC1 [[^18 F]MPPF]
f tb (PET data) [13]: 0.62
